Tested on: rickets-mice
Assay: Preventing rickets in younger mice: body weight, dry weight, ash weight and total calcium content of femur
Type: in vivo, mice of Kunming species
Details: for body weight: model 37.2 ± 4.6
Protocol: The mice were bred for 60 days under conditions of avoiding light around-the-clock, at a temperature of 20-25° C. and a relative humility of 40-60% while the normal-control group mice were fed ordinary diet and water and were placed in non-dark room.
The low-calcium diet used in this test was the same as that in Test II but VD in the vitamin mixture was replaced by glucose.
Some weanling mice were placed in dark room and fed VD -deficient low-calcium diet and drunk de-ionized water for 60 days, thus a ricket model of baby mice was prepared. While other weanling mice were placed in non-dark room and fed ordinary diet and drunk tap water for 60 days, these mice were established as normal-control group.

SMILES | body weight (200 mg calcium element) [g] | body weight (300 mg calcium element) [g] | body weight effect (in words) (mouse, in vivo)
O=C(O)[C@H](O)[C@@H](O)CO [calcium L-threonate] | 36.5 ± 4.7 | 37.3 ± 4.3 | not markedly affected
O=C(O)[C@H](O)[C@@H](O)[C@H](O)[C@H](O)CO [calcium gluconate, reference compound] | – | 36.1 ± 5.1 | –

Source: US6077872A (priority 1998, dated 2000)
